In data set [1] the test system is White mice belonging to the NMRI strain. As to conditions: literary data, 10080 min; cited from earlier work.
Another data set is described as follows: in vivo. Conditions: mouse, ip, NMRI mice, 7 days observation. As for the experimental part:
White mice belonging to the NMRI strain (body weight 20 to 25 g. both male and female) were used, 6 animals for each dose. The test compound was administered orally in a volume of 20 ml/kg, the maximum oral and intraperitoneal doses were 1000 mg/kg and 300 mg/kg, respectively. […] The mice were kept under usual laboratory conditions.

The structures appear in SMILES notation.

As a reminder, the LD50 is the dose expected to kill half of the subjects tested. A high value points to a less toxic substance. Consider `CN1C(=O)CN=C(c2ccccc2)c2cc(Cl)ccc21` [Diazepam, reference compound], for which the “LD50 (mg/kg, p.o.)” value in data set [1] was 780 mg/kg. This compound also gave an LD50 at 168 h in “in vivo” above 300 mg/kg.
